The record followed here is paper doi:10.1101/2025.10.15.682724.

Sequences of proteins named here, by UniProt entry; tags and fusion partners are left off.
UniProt Q92597: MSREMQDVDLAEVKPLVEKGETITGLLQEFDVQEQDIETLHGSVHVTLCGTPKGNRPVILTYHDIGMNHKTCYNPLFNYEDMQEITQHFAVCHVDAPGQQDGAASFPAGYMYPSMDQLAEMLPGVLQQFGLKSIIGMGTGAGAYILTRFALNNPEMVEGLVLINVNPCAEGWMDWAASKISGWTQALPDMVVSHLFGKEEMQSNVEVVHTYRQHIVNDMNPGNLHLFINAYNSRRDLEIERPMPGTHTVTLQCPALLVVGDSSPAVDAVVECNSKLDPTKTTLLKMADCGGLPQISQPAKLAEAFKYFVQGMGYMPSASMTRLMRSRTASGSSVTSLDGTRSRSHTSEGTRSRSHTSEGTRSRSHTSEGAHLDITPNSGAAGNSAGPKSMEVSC
UniProt Q8WUM4: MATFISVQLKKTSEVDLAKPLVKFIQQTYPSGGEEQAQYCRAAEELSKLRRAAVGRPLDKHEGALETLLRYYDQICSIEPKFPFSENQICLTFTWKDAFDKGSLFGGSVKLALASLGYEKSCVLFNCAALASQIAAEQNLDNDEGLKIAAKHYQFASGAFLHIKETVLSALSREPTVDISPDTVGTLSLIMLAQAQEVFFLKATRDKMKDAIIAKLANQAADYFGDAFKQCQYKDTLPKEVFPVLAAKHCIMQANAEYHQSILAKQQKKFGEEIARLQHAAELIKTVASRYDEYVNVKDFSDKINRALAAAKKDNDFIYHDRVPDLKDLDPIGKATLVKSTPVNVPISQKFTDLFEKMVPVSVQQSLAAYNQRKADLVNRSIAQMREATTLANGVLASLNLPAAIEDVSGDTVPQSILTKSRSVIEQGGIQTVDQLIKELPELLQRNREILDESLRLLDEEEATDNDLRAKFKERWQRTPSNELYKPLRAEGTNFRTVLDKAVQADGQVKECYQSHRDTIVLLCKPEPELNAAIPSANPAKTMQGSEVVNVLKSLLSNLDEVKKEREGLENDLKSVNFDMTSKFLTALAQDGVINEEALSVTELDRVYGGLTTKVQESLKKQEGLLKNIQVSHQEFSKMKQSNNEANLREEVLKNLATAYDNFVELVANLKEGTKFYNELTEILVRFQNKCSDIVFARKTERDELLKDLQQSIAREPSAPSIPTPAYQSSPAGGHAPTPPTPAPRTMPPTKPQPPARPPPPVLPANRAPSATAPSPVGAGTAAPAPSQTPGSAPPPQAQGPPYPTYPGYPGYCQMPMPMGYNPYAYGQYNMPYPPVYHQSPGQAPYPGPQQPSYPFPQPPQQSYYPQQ

These are yes or no findings as the source states them, for the method shown. In cells and extracts the contact can be indirect. Some entries that bind do so weakly or less than the wild type.

The assay concerns the target N-myc downstream-regulated gene 1 (NDRG1), wild type, stably overexpressed in MIAPaCa-2 cells (UniProt Q92597). Nature of the assay: co-IP.

For “ALG-2-interacting protein X (ALIX) (from UniProt Q8WUM4 1-868)”, the binding entry is “binds”.
